# Laboratory results published in the supplement of paper PMC7411640.
# Structures can show the parent of a compound that is named as a salt. The list shows a part of the results. This data set is noisy: repeats of one test often differ as much as different tests do.
# Tested on: MDA-MB-468
# Test: phospho-S6 immunofluorescence (DAPI-normalised), per-plate z-score; higher = higher phospho-S6 signal (less pathway suppression)
# Settings: compound 1 µM; co-treatment: GDC0941 450 nM; 24 h
# Protocol: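 GPCR-targeted compound library (MedChemExpress HY-L006) tested on MDA-MB-468 PTEN-null TNBC cells in 384-well plates at 0.1, 1 or 10 uM, combined with vehicle, GDC0941 450 nM or lapatinib 1 uM, for 24 h. Phospho-S6 (S240/244) immunofluorescence normalised to DAPI and expressed as a per-plate z-score; values are the mean of biological triplicates.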
row,SMILES,phospho-S6 immunofluorescence (z-score)
1,O=C(NC(Cc1cc(=O)[nH]c2ccccc12)C(=O)O)c1ccc(Cl)cc1 (stereo not given) [Rebamipide],0.33
2,Cc1nc(C(=O)N2CCC[C@H]2Cc2nnc(-c3ccccc3)o2)c(-c2ccccc2F)s1,0.45
3,Cc1cc(C(C)(C)C)cc(C)c1CC1=NCCN1 [Xylometazoline (hydrochloride)],-0.27
4,C[C@]12CCC(=O)C=C1CC[C@@H]1[C@@H]2[C@@H](O)C[C@@]2(C)[C@H]1CC[C@]2(O)C(=O)CO [Hydrocortisone],-0.97
5,CN(C)CCOC(c1ccccc1)c1ccccc1.Cn1c(=O)c2[nH]c(Cl)nc2n(C)c1=O [Dimenhydrinate],-0.44
6,CN(C)CCC=C1c2ccccc2C=Cc2ccccc21 [Cyclobenzaprine (hydrochloride)],-0.19
7,O=C(O)CC1CCC2(CC1)CCN(c1cc(OC(F)(F)F)ccc1Cl)CC2,0.19
8,O=C1CC2(CCCC2)CC(=O)N1CCCCN1CCN(c2ncccn2)CC1 [Buspirone (hydrochloride)],0.53
9,COc1ccccc1Oc1c(NS(=O)(=O)c2ccc(C)cn2)nc(-c2ccncc2)nc1OC [Avosentan],-0.16
10,Cc1ccc(-c2n[nH]c3c2C(c2cccc(O)c2)N(c2ccc(C(=O)O)cc2)C3=O)cc1 (stereo not given),-0.15
11,CCOc1nc2cccc(C(=O)O)c2n1Cc1ccc(-c2ccccc2-c2nnn[nH]2)cc1 [Candesartan],0.54
12,NC(N)=Nc1nc(CSCC/C(N)=N/S(N)(=O)=O)cs1 [Famotidine],-1.48
13,CC(C)(Cc1ccc2ccccc2c1)NC[C@@H](O)COc1cccc(Cl)c1C#N [NPS-2143 (hydrochloride)],-8.6
14,Cc1cc2c(s1)Nc1ccccc1N=C2N1CCN(C)CC1 [Olanzapine],0.75
15,CCOC(=O)N1CCC(NCCNC(=O)c2ccccc2C)CC1,0.31
16,CN1[C@@H]2CC[C@H]1C[C@@H](OC(=O)c1c[nH]c3ccccc13)C2 [Tropisetron (Hydrochloride)],0.1
17,CCc1cc2c(cc1CC)CC(NC[C@H](O)c1ccc(O)c3[nH]c(=O)ccc13)C2 [Indacaterol (maleate)],0.62
18,O=c1[nH]c2ccccc2n1CCN1CCN(c2cccc(C(F)(F)F)c2)CC1 [Flibanserin],0.7
19,C[N+](C)(C)CCOC(N)=O [Carbamoylcholine (chloride)],-0.65
20,CC(C)(C)NCC(O)c1cc(O)cc(O)c1 (stereo not given) [Terbutaline (sulfate)],-0.24

row,SMILES,phospho-S6 immunofluorescence (z-score)
1,COc1nc(C)cnc1NS(=O)(=O)c1cccnc1-c1ccc(-c2nnco2)cc1 [Zibotentan],-1.46
2,O=C(CN1C(=O)C2(CCCC2)NC[C@H]1c1cc(F)cc(F)c1)Nc1ccc2c(c1)C[C@@]1(C2)C(=O)Nc2ncccc21 [MK-3207 (Hydrochloride)],-1.46
3,CCN(CC)CCCC(C)Nc1nc(C)cc(Nc2ccc3nc(C)cc(N)c3c2)n1 (stereo not given),1.24
4,CCC(=O)NC[C@@H]1C[C@H]1c1cccc2c1CCO2 [Tasimelteon],-0.29
5,CCOc1nc2cccc(C(=O)OC(C)OC(=O)OC3CCCCC3)c2n1Cc1ccc(-c2ccccc2-c2nn[nH]n2)cc1 (stereo not given) [Candesartan (Cilexetil)],-0.79
6,Clc1ccc(Cn2c(CN3CCCC3)nc3ccccc32)cc1 [Clemizole (hydrochloride)],-2.66
7,CN(C)CCN1C(=O)c2cccc3cc(NC(N)=O)cc(c23)C1=O,4.63
8,CC(C)C[C@H](NC(=O)[C@@H](COC(C)(C)C)NC(=O)[C@H](Cc1ccc(O)cc1)NC(=O)[C@H](CO)NC(=O)[C@H](Cc1c[nH]c2ccccc12)NC(=O)[C@H](Cc1cnc[nH]1)NC(=O)[C@@H]1CCC(=O)N1)C(=O)N[C@@H](CCCNC(=N)N)C(=O)N1CCC[C@H]1C(=O)NNC(N)=O [Goserelin (acetate)],-0.75
9,CN1Cc2c(N)cccc2C(c2ccccc2)C1 (stereo not given) [Nomifensine (maleate)],-0.4
10,O=c1cc(CN2CCOCC2)occ1OCCCCCSc1ccnc2cc(C(F)(F)F)ccc12,-2.25
11,COc1cccc(CCc2ccccc2OCC(CN(C)C)OC(=O)CCC(=O)O)c1 (stereo not given) [Sarpogrelate (hydrochloride)],-0.3
12,COc1cccc(-c2c(C)n(Cc3c(F)cccc3C(F)(F)F)c(=O)n(C[C@H](NCCCC(=O)O)c3ccccc3)c2=O)c1F [Elagolix],0.43
13,CN1CCN2c3c(cccc31)[C@@H]1CN(CCCC(=O)c3ccc(F)cc3)CC[C@@H]12 [lumateperone (Tosylate)],-6.1
14,CN(C)CCCN1c2ccccc2Sc2ccc(C(F)(F)F)cc21 [Triflupromazine (hydrochloride)],0.13
15,COc1cc2nc(N3CCN(C(=O)C4COc5ccccc5O4)CC3)nc(N)c2cc1OC (stereo not given) [Doxazosin (mesylate)],-2.97
16,CSc1ccc2c(c1)N(CCC1CCCCN1C)c1ccccc1S2 (stereo not given) [Thioridazine (hydrochloride)],1.54
17,O=C(O)COc1cccc(CN(Cc2ccc(-n3cccn3)cc2)S(=O)(=O)c2cccnc2)c1 [Taprenepag],-0.31
18,Cc1nn(C)c2c1C(c1ccc(C(F)(F)F)cc1)C(C#N)=C(N)O2 (stereo not given),0.14
19,OCCOCCN1CCN(C2=Nc3ccccc3Sc3ccccc32)CC1 [Quetiapine],1.2
20,N=C(N)NCCC[C@H](NC(=O)[C@H](Cc1ccccc1)NC(=O)[C@@H]1CCCN1C(=O)[C@H](CO)NC(=O)[C@H](Cc1ccccc1)NC(=O)CNC(=O)[C@@H]1CCCN1C(=O)[C@@H]1CCCN1C(=O)[C@@H](N)CCCNC(=N)N)C(=O)O [Bradykinin],0.27

# Look-ups from the entries so far.
# phospho-S6 immunofluorescence (z-score), CCOc1nc2cccc(C(=O)O)c2n1Cc1ccc(-c2ccccc2-c2nnn[nH]2)cc1 [Candesartan] reads 0.54
# phospho-S6 immunofluorescence (z-score), COc1cccc(-c2c(C)n(Cc3c(F)cccc3C(F)(F)F)c(=O)n(C[C@H](NCCCC(=O)O)c3ccccc3)c2=O)c1F [Elagolix] reads 0.43
